# Laboratory results taken from US20170121295A1, “POLYCYCLIC LPA1 ANTAGONIST AND USES THEREOF” (AMIRA PHARMACEUTICALS, INC., priority 2010, published 2017).
# Where “and” joins values, the source holds several entries; their conditions need not be identical. Equal values may be shown once. Entries after “also recorded” stand apart in the source; their conditions may differ. For part of these data: At least one compound was matched to its structure with a doubt left. Some entries share one result that the patent states for a list of compounds.
# What was measured:
# [1] = Metabolites generated in vivo (rat bile and urine, rat and dog plasma)
# Method: Compound 2 (2 mg/kg) was administered intravenously (IV) to fasted rats as a solution in 0.9% saline via a bolus injection into the jugular vein (2 mg/mL; […]).
# Rats with surgically placed bile duct and jugular vein cannula were purchased from Charles River Laboratories and allowed to acclimate for 2 days. Compound 2 was intravenously dosed (2 mg/kg) to three rats as a solution in 0.9% saline (2 mg/mL; 1 mL/kg). Bile samples were collected at time-points 0-2, 2-5 and 5-8, and urine samples were collected at time-points 0-4 and 4-8 hrs post-dose in 8 mL scintillation vials and stored at −40° C. until analysis.
# Concentrations of Compound 1 in rat plasma were determined by LC-MS/MS after protein precipitation. Rat plasma (100 μL) was treated with 400 μL of internal standard solution (ISTD, buspirone in acetonitrile containing 1.5% acetic acid) to precipitate proteins. Samples were vortexed and then centrifuged for 10 min at approximately 4,000 rpm (3700×g) at 4° C. (Beckman centrifuge, Brea, Calif.).
# Parent/metabolite analysis was conducted in the positive ion mode (ESI) by multiple reaction monitoring of parent. […]
# For metabolite quantitation, the flow rate was maintained at 0.25 mL/min and the total run time was 60 min. […]
# [2] = Solubility assessment at various pH levels (solubility profile); type: physicochemical; conditions: max 10 mg/ml in 0.15M NaCl
# Method: For solubility assessment at various pH levels sufficient material to produce a maximum concentration of 10 mg·ml^−1 of API was treated with 0.15M NaCl solution and then the pH adjusted with HCl or NaOH solutions to achieve the desired pH levels. The suspensions were allowed to equilibrate for 2 hours and the pH measured and adjusted if necessary. Suspensions were then filtered and the amount of dissolved API quantified by HPLC against a standard reference solution.
# (§1) Analysis was performed on an Agilent HP1100 series system equipped with a diode array detector and using ChemStation software vB.02.01-SR1.
# The solubility of both the free acid and amorphous sodium salt was determined at a range of pH values.
# [3] = Thermodynamic aqueous solubility; type: physicochemical; conditions: water
# Method: Aqueous solubility was determined by suspending sufficient compound in water to give a maximum final concentration of ≧10 mg·ml−1 of the parent free-form of the compound. The suspension was equilibrated at 25° C. for 24 hours then the pH was measured. The suspension was then filtered through a glass fiber C filter into a 96 well plate unless stated otherwise. The filtrate was then diluted by a factor of 101. Quantification was by HPLC with reference to a standard solution of approximately 0.25 mg·ml^−1 in DMSO. Different volumes of the standard, diluted and undiluted sample solutions were injected. The solubility was calculated using the peak areas determined by integration of the peak found at the same retention time as the principal peak in the standard injection.
# as §1
# [4] = Gravimetric Vapour Sorption (GVS); type: physicochemical
# Method: In some embodiments, sorption isotherms were obtained using a SMS DVS Intrinsic moisture sorption analyzer, controlled by SMS Analysis Suite software. The sample temperature was maintained at 25° C. by the instrument controls. The humidity was controlled by mixing streams of dry and wet nitrogen, with a total flow rate of 200 ml·min−1. The relative humidity was measured by a calibrated Rotronic probe (dynamic range of 1.0-100% RH), located near the sample. The weight change (mass relaxation) of the sample as a function of % RH was constantly monitored by the microbalance (accuracy ±0.005 mg). Typically 5-20 mg of sample was placed in a tared mesh stainless steel basket under ambient conditions. The sample was loaded and unloaded at 40% RH and 25° C. (typical room conditions). A moisture sorption isotherm was performed as outlined below (2 scans giving 1 complete cycle). The standard isotherm was performed at 25° C. at 10% RH intervals over a 0.5-90% RH range.
# The sample was recovered after completion of the isotherm and re-analyzed by XRPD.
# [5] = Solid form stability on storage at elevated relative humidity (XRPD); type: physicochemical; conditions: 40° C./75% RH for one week
# Source text: X-Ray powder diffraction patterns were collected on a Bruker AXS C2 GADDS or Bruker AXS D8 Advance diffractometer.
# X-Ray Powder Diffraction patterns were collected on a Bruker D8 diffractometer using Cu Kα radiation (40 kV, 40 mA), θ−2θ goniometer, and divergence of V4 and receiving slits, a Ge monochromator and a Lynxeye detector. The instrument was performance checked using a certified Corundum standard (NIST 1976). The software used for data collection was Diffrac Plus XRD Commander v2.5.0 and the data were analyzed and presented using Diffrac Plus EVA v 11.0.0.2 or v 13.0.0.2. Samples were run under ambient conditions as flat plate specimens using powder. Approximately 5 mg of the sample was gently packed into a cavity cut into polished, zero-background (510) silicon wafer. The sample was rotated in its own plane during analysis. The details of the data collection are: • Angular range: 2 to 42° 2θ • Step size: 0.05° 2θ • Collection time: 0.5 s·step^−1
# [6] = system: bleomycin-induced lung fibrosis; assay: Bleomycin-Induced Lung Fibrosis Model in Mice; type: in vivo, Female C57Bl/6 mice; conditions: for total lung collagen: 14 day bleomycin model
# [7] = system: CCl4-induced liver fibrosis; assay: Mouse Carbon Tetrachloride (CCl4)-Induced Liver Fibrosis Model; type: in vivo, Female C57BL/6 mice; conditions: compared to the untreated group
# [8] = system: LPA-induced Evan's blue dye leak into the skin; assay: Mouse Dermal Vascular Leak Assay; type: in vivo, Female BALB/c mice; conditions: 30 mg/kg oral gavage, three hours before challenge
# [9] = system: bleomycin-induced scleroderma; assay: Mouse Model of Bleomycin-Induced Scleroderma; type: in vivo, Female C57Bl/6 mice; conditions: day 28, oral, *P<0.05 versus BLM
# [10] = system: unilateral ureteral obstruction (UUO) kidney fibrosis; assay: Mouse Unilateral Ureteral Obstruction Kidney Fibrosis Model; type: in vivo, Female C57BL/6 mice; conditions: compared to untreated group
smiles,measurement,setting,value
Cc1noc(-c2ccc(-c3ccc(C4(C(=O)ON[C@H](C=O)CCC(=O)O)CC4)cc3)cc2)c1NC(=O)O[C@H](C)c1ccccc1 [Compound M1],"metabolite AUC relative to the parent, Compound 1",[1],less than 10%
Cc1noc(-c2ccc(-c3ccc(C4(C(=O)[O-])CC4)cc3)cc2)c1NC(=O)O[C@H](C)c1ccccc1.[Na+] [Compound 2 (Amorphous)],Appearance after 2 hrs,[2]; Target pH 3,Residual Solid
same,Appearance after 24 hrs,[2]; Target pH 3,Residual Solid
same,Appearance after 2 hrs,[2]; Target pH 4,Residual Solid
same,Appearance after 24 hrs,[2]; Target pH 4,Residual Solid
same,Appearance after 2 hrs,[2]; Target pH 5,Residual Solid
same,Appearance after 24 hrs,[2]; Target pH 5,Residual Solid
same,Appearance after 2 hrs,[2]; Target pH 6,Residual Solid
same,Appearance after 24 hrs,[2]; Target pH 6,Residual Solid
same,Appearance after 2 hrs,[2]; Target pH 7,Suspension
same,Appearance after 24 hrs,[2]; Target pH 7,Suspension
same,Appearance after 2 hrs,[2]; Target pH 8,Fine Suspension
same,Appearance after 24 hrs,[2]; Target pH 8,Fine Suspension
same,Appearance after 2 hrs,[2]; Target pH 9,Clear Solution
same,Appearance after 24 hrs,[2]; Target pH 9,Clear Solution
same,Appearance after 2 hrs,[2]; Target pH 11,Clear Solution
same,Appearance after 24 hrs,[2]; Target pH 11,Clear Solution
"Cc1noc(-c2ccc(-c3ccc(C4(C(=O)[O-])CC4)cc3)cc2)c1NC(=O)O[C@H](C)c1ccccc1.[Na+] [Compound 2, 1-{4′-[3-methyl-4-((R)-1-phenyl-ethoxycarbonylamino)-isoxazol-5-yl]-biphenyl-4-yl}-cyclopropanecarboxylic acid, sodium salt]",Appearance,[3],Clear Solution
same,pH of saturated solution,[3]; sodium salt,9.07 and 8.90
Cc1noc(-c2ccc(-c3ccc(C4(C(=O)O)CC4)cc3)cc2)c1NC(=O)O[C@H](C)c1cccc(O)c1 [Compound M4],"metabolite AUC relative to the parent, Compound 1",[1],less than 10%
"Cc1noc(-c2ccc(-c3ccc(C4(C(=O)O)CC4)cc3)cc2)c1NC(=O)O[C@H](C)c1ccccc1 [Compound 1, 1-{4′-[3-methyl-4-((R)-1-phenyl-ethoxycarbonylamino)-isoxazol-5-yl]-biphenyl-4-yl}-cyclopropanecarboxylic acid]",Appearance,[3],Suspension
same,pH of saturated solution,[3]; listed as free acid,7.07 and 6.93
same,Appearance after 2 hrs,[2]; Target pH 3,Residual Solid/
same,Appearance after 24 hrs,[2]; Target pH 3,Residual Solid/
same,Appearance after 2 hrs,[2]; Target pH 4,Residual Solid/
same,Appearance after 24 hrs,[2]; Target pH 4,Residual Solid/
same,Appearance after 2 hrs,[2]; Target pH 5,Residual Solid/
same,Appearance after 24 hrs,[2]; Target pH 5,Residual Solid/
same,Appearance after 2 hrs,[2]; Target pH 6,Residual Solid/
same,Appearance after 24 hrs,[2]; Target pH 6,Residual Solid/
same,Appearance after 2 hrs,[2]; Target pH 7,Residual Solid/
same,Appearance after 24 hrs,[2]; Target pH 7,Suspension/
same,Appearance after 2 hrs,[2]; Target pH 8,Suspension
same,Appearance after 24 hrs,[2]; Target pH 8,Suspension
same,Appearance after 2 hrs,[2]; Target pH 9,Suspension
same,Appearance after 24 hrs,[2]; Target pH 9,Suspension
same,Appearance after 2 hrs,[2]; Target pH 11,Suspension
same,Appearance after 24 hrs,[2]; Target pH 11,Clear Solution
same,change of form after GVS analysis (XRPD),[4],No form change was noted
same,hygroscopicity (comparison),[4],less hygroscopic than the sodium salt
same,mass gain between 0% and 90% relative humidity,[4]; 25° C.,0.45%
same,XRPD / solid form after storage,[5],No form change was noted; also recorded: substantially the same
same,BALF MMP-7,[6]; 7-day bleomycin model,reduced
same,BALF TGFβ1,[6]; 7-day bleomycin model,reduced
same,BALF collagen,[6]; 7-day bleomycin model,reduced
same,BALF hyaluronan,[6]; 7-day bleomycin model,reduced
same,BALF inflammatory cell influx,[6]; 7-day bleomycin model,reduced
same,BALF protein,[6]; 7-day bleomycin model,reduced
same,total lung collagen,[6]; dosed prophylactically (day 0-day 14),decreased
same,total lung collagen,[6]; dosed therapeutically (day 3-day 14),decreased
same,collagen concentration in BALF,[6]; acute setting (3 day),significantly reduced
same,total protein concentration in BALF,[6]; acute setting (3 day),significantly reduced
same,collagen deposition in the liver,[7],significantly reduced
same,liver weight increase,[7],significantly reduced
same,LPA-induced Evan's blue dye leak into the skin,[8],reduced
same,dermal thickness,[9]; FIG. 14,reduced
same,collagen content,[9]; FIG. 15,reduced
same,collagen Type 1,[10],reduced
same,hyaluronic acid,[10],reduced
same,plasminogen activator inhibitor-1,[10],reduced
same,tissue inhibitor of metalloproteinase-1,[10],reduced
same,total kidney collogen,[10],reduced
same,transforming growth factor β1,[10],reduced
